The results in this text go back to article PMC10987620.

Amino acid sequences for entries named in this document (tags omitted).
UniProt O00425: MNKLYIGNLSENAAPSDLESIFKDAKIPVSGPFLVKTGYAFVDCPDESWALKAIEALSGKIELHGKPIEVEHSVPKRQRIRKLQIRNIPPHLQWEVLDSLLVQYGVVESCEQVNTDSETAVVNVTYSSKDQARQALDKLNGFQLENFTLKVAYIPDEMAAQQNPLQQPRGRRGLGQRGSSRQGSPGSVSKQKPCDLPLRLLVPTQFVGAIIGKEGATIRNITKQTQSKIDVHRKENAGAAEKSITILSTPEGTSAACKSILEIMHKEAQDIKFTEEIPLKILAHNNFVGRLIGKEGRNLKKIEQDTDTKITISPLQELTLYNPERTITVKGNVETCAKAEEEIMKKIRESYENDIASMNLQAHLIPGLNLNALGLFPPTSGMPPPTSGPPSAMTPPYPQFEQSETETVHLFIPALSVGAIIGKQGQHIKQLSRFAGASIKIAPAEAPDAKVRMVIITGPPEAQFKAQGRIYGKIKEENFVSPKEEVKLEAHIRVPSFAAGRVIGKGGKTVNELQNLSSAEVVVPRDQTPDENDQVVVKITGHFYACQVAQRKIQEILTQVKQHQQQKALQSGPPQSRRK

The target in this experiment is FLAG-labeled full-length IGF2BP3 (UniProt O00425). The experiment is described as follows: co-IP; HA-MKRN2 and FLAG-IGF2BP3; immunoprecipitation after overexpression or knockdown of the lncRNA PCAT5; RIPA lysis with protease and ribonuclease inhibitor; Protein A/G magnetic beads overnight at 4 °C; washes with NT2 buffer.

These are yes or no findings as the source states them, for the method shown. Binding seen in cells or lysates may run through a third protein. Some results given as binding are weak or reduced against the parent protein; the word gives no strength. Tags and fused reporters may be left off the sequences shown.

B1: HA-labeled full-length MKRN2 (protein, UniProt Q9H000 1-416)
chain: MSTKQITCRYFMHGVCREGSQCLFSHDLANSKPSTICKYYQKGYCAYGTRCRYDHTRPSAAAGGAVGTMAHSVPSPAFHSPHPPSEVTASIVKTNSHEPGKREKRTLVLRDRNLSGMAERKTQPSMVSNPGSCSDPQPSPEMKPHSYLDAIRSGLDDVEASSSYSNEQQLCPYAAAGECRFGDACVYLHGEVCEICRLQVLHPFDPEQRKAHEKICMLTFEHEMEKAFAFQASQDKVCSICMEVILEKASASERRFGILSNCNHTYCLSCIRQWRCAKQFENPIIKSCPECRVISEFVIPSVYWVEDQNKKNELIEAFKQGMGKKACKYFEQGKGTCPFGSKCLYRHAYPDGRLAEPEKPRKQLSSQGTVRFFNSVRLWDFIENRESRHVPNNEDVDMTELGDLFMHLSGVESSEP
For B1, the binding result was “binds”.
